# From PubChem BioAssay AID2685 (National Center for Advancing Translational Sciences (NCATS), 2010)
# Out of some 320,000 compounds screened, about 2,100 (0.66%) were called active. Inconclusive results, whose numbers are uncertain, are shown with a selection of clear calls. Calls come from the whole dose curve; as a rule, active = well fitted inhibition curve with a large enough effect in the signal ratio, with a control signal flat (not every such curve was filed as active); inconclusive = small, poorly fitted or top-dose-only effect, or effect the other way, or a change in a side signal; inactive = flat fitted curve, though single readings scatter; the % refers to the signal ratio. Potencies of inconclusive entries are doubtful fits and often do not repeat.
# Experiment: qHTS Assay for Lipid Storage Modulators in Drosophila S3 Cells
# Settings: BODIPY lipid droplet fluorescence, 18-24 h, cells fed with added oleic acid; lipid storage change, negative = inhibition: at 46.1 µM (top of the series) unless noted
# Outline: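 Laser-scanning cytometry quantifies lipid droplet accumulation (500–530 nm total intensity; droplet/cell object ratio) in oleic acid-fed (400 uM added) Drosophila S3 cells treated with a concentration series. 20 uM Triacsin C defined 100% inhibition.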
# % is set by controls: 0 for no effect and ±100 for the full control effect; potency is the fitted concentration of half-maximal effect.
SMILES,"lipid storage change, negative = inhibition",Potency,outcome
CCCCC(=O)Nc1cc(C(=O)NCCc2ccccc2)ccc1Cl,inconclusive: -19%,–,–
COC(=O)c1c(NC(=O)CS(=O)(=O)c2ccccc2)sc(C)c1C,inconclusive: 11.5%,–,–
CSc1ccccc1C(=O)Nc1ccccc1C,inconclusive: 82.3%,–,–
O=C(NC(=S)Nc1ccccc1Cl)C1CC1,–,"inconclusive: 1.3 µM [activator, partial curve]",–
CCOC(=O)c1c(NC(=O)COC(=O)c2nc(Cl)ccc2Cl)sc(C(=O)NC)c1C,inconclusive,–,–
Cc1ccc(-c2ccc(SCC(=O)Nc3nonc3C)nn2)cc1,–,"inconclusive: 29.1 µM [falling, single point]",–
O=C(CN1C(=O)S/C(=C\C=C\c2ccccc2)C1=O)NC1CCS(=O)(=O)C1 (centres undefined),–,"inconclusive: 29.1 µM [falling, single point]",–
O=C(Nc1cccc(-c2cccc(Cl)c2)c1)C1CCN(Cc2ccon2)CC1,inconclusive: -2.65%,–,–
CC(C)C1N(C(=O)CN2CCCCC2)CCN1S(=O)(=O)c1ccccc1 (centres undefined),inconclusive: -28.9%,–,–
O=S(=O)(NC1CCC(NS(=O)(=O)c2c(F)cccc2F)CC1)c1ccc2c(c1)OCCO2 (centres undefined),inconclusive: 1.98%,–,–
COc1ccccc1CNC(=O)Cn1cccc1C(=O)c1ccccc1C,–,–,inactive [at 46.1 µM]
O=C(O)[C@H](Cc1c[nH]c2ccccc12)Nc1ncccc1[N+](=O)[O-],inconclusive: 0.126%,–,–
NC(=O)c1ccc(NC(=O)COC(=O)/C=C/c2cn(-c3ccccc3)nc2-c2cccnc2)cc1,inconclusive: 2.96%,–,–
O=C(NCc1ccccc1)C(=O)NCC1OCCN1S(=O)(=O)c1ccc2c(c1)OCCO2 (centres undefined),inconclusive: 25%,–,–
COc1ccc(N2C(=O)C(Cl)=C(N3CCN(Cc4ccccc4)CC3)C2=O)cc1,inconclusive: -34.8%,–,–
CC(C)C(=O)NCC(c1ccc2c(c1)OCO2)N1CCOCC1 (centres undefined),inconclusive: 8.86%,–,–
CCc1ccc(-n2cc(-c3ccc(F)cc3)[n+]3c2SCCC3)cc1,–,"inconclusive: 0.116 µM [falling, full curve, poor fit]",–
O=C(COCc1nc2ccccc2c(=O)[nH]1)NC1CCCC1,inconclusive: 20%,–,–
COc1ccc(CC(=O)Nc2ccc(S(=O)(=O)Nc3cc(C)on3)cc2)cc1,–,"inconclusive: 29.1 µM [activator, partial curve, poor fit]",–
Cc1ccc2nc(NC(=O)C3CCCN(S(=O)(=O)c4cnc[nH]4)C3)sc2c1 (centres undefined),–,"inconclusive: 5.17 µM [falling, partial curve, poor fit]",–

# Structures above that have an aryl thioether with sulfur outside any ring, in the order listed:
SMILES,"lipid storage change, negative = inhibition",Potency,outcome
CSc1ccccc1C(=O)Nc1ccccc1C,inconclusive: 82.3%,–,–
Cc1ccc(-c2ccc(SCC(=O)Nc3nonc3C)nn2)cc1,–,"inconclusive: 29.1 µM [falling, single point]",–

# The list continues.

SMILES,"lipid storage change, negative = inhibition",Potency,outcome
COc1ccc(NC(=O)CC2C(=O)N(c3ccc(OC)cc3)C(=O)N2CCN2CCN(C)CC2)cc1 (centres undefined),–,"inconclusive: 6.51 µM [falling, single point]",–
O=C(Nc1cccc2ncccc12)c1cccnc1,inactive: 42.3%,–,–
CCN(c1ccc(NC(=O)COC(=O)c2ccc(C)c(S(=O)(=O)N3CCOCC3)c2)cc1)C(C)C,–,active: 23.1 µM,–
Nc1cc(OC(=O)c2ccc(F)cc2)nn1S(=O)(=O)c1ccccc1,inconclusive: 256%,–,–
COc1ccc(NC(=O)CSc2nnc(NC(=O)C3CCC3)s2)c(OC)c1,inconclusive: -0.446%,–,–
Cc1ccnc(NS(=O)(=O)c2ccc(NC(=O)c3snnc3C)cc2)n1,inconclusive: 41.8%,–,–
CC(Cc1c[nH]c2ccccc12)C(=O)O (centres undefined),inconclusive: 0.573%,–,–
Cc1ccc(OC2=NS(=O)(=O)c3ccccc32)cc1,–,"inconclusive: 29.1 µM [cytotoxic, single point]",–
Cc1cccc(/C=N/NC(=O)c2cccc(NC(=O)c3ccccc3)c2)n1,inconclusive: -12.2%,–,–
Cc1c(C(=O)NCC2CCCO2)sc2nc(-c3ccccc3)cn12 (centres undefined),inconclusive: -34.3%,–,–
CN(C)C(CNc1ccc(S(C)(=O)=O)cc1[N+](=O)[O-])Cc1ccccc1 (centres undefined),inconclusive: -14.3%,–,–
COCCNC(=S)N(CCc1c(C)[nH]c2ccc(C)cc12)Cc1cc(OC)c(OC)c(OC)c1,inconclusive: -7.02%,–,–
O=C(NCc1ccccc1Cl)C1CCCN1S(=O)(=O)c1ccc(F)cc1 (centres undefined),–,"inconclusive: 32.6 µM [activator, single point]",–
CCOC(=O)C1CCN(C(=O)/C=C/c2ccccc2OC)CC1,–,"inconclusive: 2.59 µM [rising, single point]",–
COC(=O)c1cc2c(ccn2-c2ccc(F)cc2)n1CC(C)C,inconclusive: 12.6%,–,–
N#CC1(Nc2cccc(Br)c2)C(=O)Nc2ccccc21 (centres undefined),–,"inconclusive: 16.4 µM [falling, single point]",–
C[C@@H](C(=O)NCC1CC1)[C@H]1C[C@]1(C)[C@H](NC(=O)OCc1ccccc1)c1ccccc1,inconclusive: 18%,–,–
O=C(OCCOc1ccc(Br)cc1)c1ccc(Cl)nc1,inconclusive: 47.9%,–,–
O=C(O)c1ccc2cc[nH]c2c1,–,"inconclusive: 29.1 µM [activator, single point]",–
